Measured values from the supplement of paper PMC12067093, “Discovery and optimisation of a covalent ligand for TRIM25 and its application to targeted protein ubiquitination” (Chemical Science, 2025).
The other results are listed elsewhere or left out.

Protein sequences, listed by entry. Tags and fused reporters are not part of them. Lines headed by an entry give the natural chain unless they say otherwise; changes in a name come on top.
UniProt Q8N4J0: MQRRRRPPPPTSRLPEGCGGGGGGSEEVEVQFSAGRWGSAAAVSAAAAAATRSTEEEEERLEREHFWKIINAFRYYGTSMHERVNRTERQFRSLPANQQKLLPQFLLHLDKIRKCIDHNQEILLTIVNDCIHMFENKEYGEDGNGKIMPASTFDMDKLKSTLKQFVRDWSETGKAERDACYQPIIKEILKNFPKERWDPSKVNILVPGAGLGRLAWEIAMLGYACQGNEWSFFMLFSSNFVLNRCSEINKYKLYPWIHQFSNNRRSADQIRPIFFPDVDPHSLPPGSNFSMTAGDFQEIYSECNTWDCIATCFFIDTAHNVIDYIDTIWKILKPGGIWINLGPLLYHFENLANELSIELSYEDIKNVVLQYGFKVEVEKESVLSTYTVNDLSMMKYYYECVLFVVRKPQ
UniProt A6NC98: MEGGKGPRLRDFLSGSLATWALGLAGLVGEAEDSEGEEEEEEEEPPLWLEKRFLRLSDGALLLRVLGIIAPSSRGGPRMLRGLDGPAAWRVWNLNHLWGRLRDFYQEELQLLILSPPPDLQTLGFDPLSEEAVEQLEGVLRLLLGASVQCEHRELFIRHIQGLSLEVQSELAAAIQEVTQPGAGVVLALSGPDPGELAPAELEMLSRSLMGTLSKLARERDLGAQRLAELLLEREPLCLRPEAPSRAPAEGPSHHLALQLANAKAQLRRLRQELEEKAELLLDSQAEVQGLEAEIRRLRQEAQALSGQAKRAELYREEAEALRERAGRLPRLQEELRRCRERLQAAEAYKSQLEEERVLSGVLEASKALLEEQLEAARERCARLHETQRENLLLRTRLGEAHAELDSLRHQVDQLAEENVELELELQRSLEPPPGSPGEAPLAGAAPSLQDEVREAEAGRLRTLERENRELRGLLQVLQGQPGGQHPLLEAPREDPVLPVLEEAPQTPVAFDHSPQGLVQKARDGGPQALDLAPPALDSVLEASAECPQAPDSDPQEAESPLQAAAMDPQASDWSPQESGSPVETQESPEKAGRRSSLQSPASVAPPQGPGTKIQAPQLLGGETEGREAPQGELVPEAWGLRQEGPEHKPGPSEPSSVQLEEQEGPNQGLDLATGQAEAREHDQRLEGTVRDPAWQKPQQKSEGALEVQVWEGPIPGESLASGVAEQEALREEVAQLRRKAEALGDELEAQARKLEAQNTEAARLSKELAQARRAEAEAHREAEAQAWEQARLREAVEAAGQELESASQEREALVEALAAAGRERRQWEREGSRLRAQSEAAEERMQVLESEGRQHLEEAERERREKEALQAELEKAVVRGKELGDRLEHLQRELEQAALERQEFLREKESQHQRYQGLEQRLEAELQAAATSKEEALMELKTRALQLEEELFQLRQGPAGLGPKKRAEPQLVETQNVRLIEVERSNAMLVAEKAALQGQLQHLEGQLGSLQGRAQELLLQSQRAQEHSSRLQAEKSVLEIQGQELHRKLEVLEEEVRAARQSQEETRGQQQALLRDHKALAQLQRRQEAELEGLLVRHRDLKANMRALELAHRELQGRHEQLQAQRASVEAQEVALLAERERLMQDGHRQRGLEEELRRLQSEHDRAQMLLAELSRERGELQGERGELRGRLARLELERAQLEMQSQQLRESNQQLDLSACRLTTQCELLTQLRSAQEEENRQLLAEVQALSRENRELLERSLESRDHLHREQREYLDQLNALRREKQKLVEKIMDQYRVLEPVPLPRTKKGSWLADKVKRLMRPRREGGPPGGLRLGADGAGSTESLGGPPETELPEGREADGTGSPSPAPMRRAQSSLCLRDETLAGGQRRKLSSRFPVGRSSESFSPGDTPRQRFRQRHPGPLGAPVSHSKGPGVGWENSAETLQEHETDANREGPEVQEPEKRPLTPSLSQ
UniProt Q7Z6B0: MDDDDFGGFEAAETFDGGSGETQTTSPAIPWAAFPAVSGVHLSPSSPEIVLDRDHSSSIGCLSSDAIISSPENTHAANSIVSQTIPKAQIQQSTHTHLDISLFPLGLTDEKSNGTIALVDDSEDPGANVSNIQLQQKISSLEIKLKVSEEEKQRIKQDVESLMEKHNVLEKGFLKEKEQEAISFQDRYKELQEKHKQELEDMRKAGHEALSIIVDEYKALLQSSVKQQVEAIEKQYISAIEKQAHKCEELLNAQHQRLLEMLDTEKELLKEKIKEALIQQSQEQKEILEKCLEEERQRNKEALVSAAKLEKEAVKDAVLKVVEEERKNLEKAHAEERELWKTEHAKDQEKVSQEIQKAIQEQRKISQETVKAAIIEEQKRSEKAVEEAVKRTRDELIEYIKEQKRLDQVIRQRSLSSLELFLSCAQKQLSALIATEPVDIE
UniProt P29466: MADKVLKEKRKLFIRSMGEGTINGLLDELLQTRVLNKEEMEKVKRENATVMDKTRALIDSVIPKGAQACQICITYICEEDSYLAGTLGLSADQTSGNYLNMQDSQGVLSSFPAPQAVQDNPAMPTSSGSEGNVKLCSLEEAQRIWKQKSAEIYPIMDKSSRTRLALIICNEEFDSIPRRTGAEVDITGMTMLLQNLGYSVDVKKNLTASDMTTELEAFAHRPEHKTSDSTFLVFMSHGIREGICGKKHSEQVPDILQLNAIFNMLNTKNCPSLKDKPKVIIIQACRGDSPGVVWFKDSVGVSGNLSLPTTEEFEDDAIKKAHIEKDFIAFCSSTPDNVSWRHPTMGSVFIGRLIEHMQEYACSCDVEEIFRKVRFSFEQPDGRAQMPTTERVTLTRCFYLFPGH
UniProt P49662: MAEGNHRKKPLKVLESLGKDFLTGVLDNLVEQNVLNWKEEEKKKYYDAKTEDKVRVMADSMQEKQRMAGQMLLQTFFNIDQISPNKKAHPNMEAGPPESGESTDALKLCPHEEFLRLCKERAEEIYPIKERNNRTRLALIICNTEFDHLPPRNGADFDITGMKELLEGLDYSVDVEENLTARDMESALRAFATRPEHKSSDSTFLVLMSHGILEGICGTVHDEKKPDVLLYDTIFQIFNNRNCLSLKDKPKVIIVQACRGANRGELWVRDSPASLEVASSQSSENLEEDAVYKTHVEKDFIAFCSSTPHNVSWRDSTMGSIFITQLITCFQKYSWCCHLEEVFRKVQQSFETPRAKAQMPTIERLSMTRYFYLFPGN

Compound: CC1Cc2ccccc2N1C(=O)C1CCCN(C1)C(=O)CCl (mixture of isomers) [TRIM25 ligand 11 (diastereomer mixture)]
Assay: probe-labelled cysteine peptide fold change vs DMSO (competition) (log2 fold change); higher = less target engagement (more negative = stronger competition)
Details: 50 µM; THP-1; incubation time: 4 h
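Also: competitive chemoproteomic profiling in live THP-1 cells with an iodoacetamide desthiobiotin (IA-DTB) probe, comparing probe-labelled peptide intensities in compound-treated cells against DMSO-treated controls.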

Q: “CARNMT1_Q8N4J0_115_CIDHNQEILLTIVNDCIHMFENK (UniProt Q8N4J0)” was tested. Which “probe-labelled cysteine peptide fold change” value did it give?
A: Its value is -0.0019.

Q: With “CBL_P22681_572_RPLPCTPGDCPSR (UniProt P22681)” as the target, how does the “probe-labelled cysteine peptide fold change” value read?
A: The value was 0.154.

Q: With “CCDC88B_A6NC98_1382_AQSSLCLRDETLAGGQR (UniProt A6NC98)” as the target, how does the “probe-labelled cysteine peptide fold change” value read?
A: The value was -0.355.

Q: For “CCDC91_Q7Z6B0_424_SLSSLELFLSCAQK (UniProt Q7Z6B0)”, which “probe-labelled cysteine peptide fold change” value is on record?
A: The value was -0.102.

Q: For “CASP1_P29466_362+364_LIEHMQEYACSCDVEEIFRK (UniProt P29466)”, which “probe-labelled cysteine peptide fold change” value is on record?
A: Its value is -0.157.

Q: How did the “probe-labelled cysteine peptide fold change” value turn out when “CASP4_P49662_142_LALIICNTEFDHLPPR (UniProt P49662)” was run?
A: Its value is 0.0226.
